This assay concerns the target T1, human CC chemokine receptor 4 (CCR4) (human, UniProt P51679 1-360).
T1 sequence (looked up): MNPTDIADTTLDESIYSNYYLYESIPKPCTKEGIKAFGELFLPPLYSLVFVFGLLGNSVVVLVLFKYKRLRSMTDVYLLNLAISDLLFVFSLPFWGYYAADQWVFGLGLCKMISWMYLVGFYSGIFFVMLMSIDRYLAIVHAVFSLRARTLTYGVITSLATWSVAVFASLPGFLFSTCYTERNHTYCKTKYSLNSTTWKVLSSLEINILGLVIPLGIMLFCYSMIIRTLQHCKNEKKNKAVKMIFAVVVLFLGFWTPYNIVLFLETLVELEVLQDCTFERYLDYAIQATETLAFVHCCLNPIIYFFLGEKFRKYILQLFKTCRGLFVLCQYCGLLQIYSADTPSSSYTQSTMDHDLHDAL
Nature of the assay: chemotactic assay on CCRF-CEM cells.

Results are given in words; binding and its absence hold for the method and conditions named. Some results given as binding are weak or reduced against the parent protein; the word gives no strength. Sequences can lack the tags named with a protein.

B1: Alexa647-labelled MDC-SNAP fusion protein (ligand, UniProt O00626 25-93, looked up, not shown: large carriers)
chain: GPYGANMEDSVCCRDYVRYRLPLRVVKHFYWTSDSCPRPGVVLLTFRDKEICADPRVPWVKMILNKLSQ
modifications: labeled with Alexa647
As for B1, the binding result was “binds”.

These data come from patent publication US20120164161A1 (AFFITECH RESEARCH, published 2012).
